Measured values as given in ChEMBL document CHEMBL4354838, “Synthesis and in Vitro and in Vivo Biological Evaluation of Tissue-Specific Bisthiazole Histone Deacetylase (HDAC) Inhibitors” (J Med Chem, 2020).

Chains of the proteins cited; added tags and fusions are not shown.
UniProt Q13547, whole entry: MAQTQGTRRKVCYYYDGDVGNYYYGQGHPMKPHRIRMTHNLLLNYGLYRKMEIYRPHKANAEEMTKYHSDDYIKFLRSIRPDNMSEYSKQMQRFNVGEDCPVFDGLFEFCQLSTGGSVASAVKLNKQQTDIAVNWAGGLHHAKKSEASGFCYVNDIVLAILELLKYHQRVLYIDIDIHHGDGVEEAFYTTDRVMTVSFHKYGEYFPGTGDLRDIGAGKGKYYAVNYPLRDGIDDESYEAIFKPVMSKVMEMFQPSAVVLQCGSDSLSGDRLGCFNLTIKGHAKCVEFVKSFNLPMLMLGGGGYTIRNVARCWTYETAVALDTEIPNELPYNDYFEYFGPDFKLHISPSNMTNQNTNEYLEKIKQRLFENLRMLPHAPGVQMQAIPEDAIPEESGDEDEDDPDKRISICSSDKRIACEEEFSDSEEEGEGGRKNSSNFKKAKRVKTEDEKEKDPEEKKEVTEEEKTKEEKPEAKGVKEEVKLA

Biological target: Histone deacetylase 1 (Homo sapiens, UniProt Q13547)
Assay: biochemical
Type: cell-based

Which IC50 does the source give for `O=C(NO)c1ccc(CNC(=O)c2nc(-c3nccs3)sc2C2CC2)cc1` here?
The IC50 was 23.7 nM.
